Laboratory results: publication PMC12401969, “The gut microbiota protein BOC1 exhibits immune checkpoint inhibitor-like activity by inhibiting myeloid-derived suppressor cell differentiation” (Frontiers in Immunology, 2025)
These are yes or no findings as the source states them, for the method shown. Some entries that bind do so weakly or less than the wild type. Where a sequence is shown, tags or fusion partners need not be part of it.

Experiments:
biotinylated CD200R1 [1] = target: T1, biotinylated CD200R1 (UniProt Q8TD46 29-265, biotin (site not stated)); test: AlphaScreen or HTRF; AlphaLISA competition; CD200-His/CD200R1-(biot) (3 nM each by the legend; 0.3 nM CD200R1-(biot) and 3 nM CD200-His by the methods) with untagged 50 aa-long BOC1 peptides at 0.01 to 1 µM, 1 h at room temperature; read as % inhibition of the complex; both purified
T1 construct: CD200R1 (CD200 receptor 1), soluble biotinylated protein; Held on streptavidin Donor beads in the AlphaLISA; also called CD200R1-(biot)
T1 sequence (looked up): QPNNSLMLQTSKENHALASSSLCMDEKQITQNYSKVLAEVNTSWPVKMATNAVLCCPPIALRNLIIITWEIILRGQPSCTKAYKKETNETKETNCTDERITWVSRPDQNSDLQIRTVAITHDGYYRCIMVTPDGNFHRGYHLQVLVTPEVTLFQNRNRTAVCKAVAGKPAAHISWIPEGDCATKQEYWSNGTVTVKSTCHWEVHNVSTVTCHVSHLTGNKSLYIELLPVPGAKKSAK

biotinylated CD200R1 [2] = target: T1, biotinylated CD200R1; test: AlphaScreen or HTRF; AlphaLISA competition; 0.3 nM CD200R1-(biot) and 3 nM CD200-His, or the CD200R1-(biot)/BOC1-His complex, with a dose response of CD200-Fc (0.1 to 100 nM), 1 h at room temperature; read as % dissociation of the complex; both purified
biotinylated CD200R1 [3] = target: T1, biotinylated CD200R1; test: AlphaScreen or HTRF; AlphaLISA; CD200R1-(biot)/CD200-His or CD200R1-(biot)/BOC1-His complex (each protein at 3 nM) with an anti-CD200R1 antibody (30 nM); read as remaining activity and % inhibition; both purified

Measured: binding

B1: CD200-His (ligand, UniProt P41217 31-232, looked up)
chain: QVQVVTQDEREQLYTPASLKCSLQNAQEALIVTWQKKKAVSPENMVTFSENHGVVIQPAYKDKINITQLGLQNSTITFWNITLEDEGCYMCLFNTFGFGKISGTACLTVYVQPIVSLHYKFSEDHLNITCSATARPAPMVFWKVPRSGIENSTVTLSHPNGTTSVTSILHIKDPKNQVGKEVICQVLHLGTVTDFKQTVNKG
notes: CD200 (OX-2), soluble His-tagged protein; Held on anti-6His Acceptor beads in the AlphaLISA; also called His-tagged CD200
binds: all assays above
